Measurements reported in PubChem BioAssay AID1259254 (NCATS, 2017)
Purpose: 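Gene knock-downs that lead to re-replication, shown by excess G2 DNA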 (primary screen). Cell system: human HCT116 colorectal cancer cells. Knock-down reagent: single siRNA against human genes. Timing: 3 days. Measured: 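Nuclei stained with Hoechst and imaged; cell-cycle phase assigned by DNA content; G2 share scaled per plate, non-targeting siRNA 0%, GMNN siRNA 100%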. Direction: G2 robust z-score and G2 cells, % of GMNN control: higher = more G2 cells, more excess DNA replication; raw share of cells in G2: higher = larger share of cells with G2 DNA content. Call rule: 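Active siRNAs have a G2 robust z of 5 or more median absolute deviations over the median, which in these data means about 38% or higher of GMNN control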.
In all, the deposit lists about 59,000 reagents; this is a random part of them. Of all reagents, about 1,550 (2.6%) were called active. 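G2 share is only a proxy for re-replication; each gene was hit by three separate siRNAs, and active genes were retested.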 Raw values are not corrected between plates. Reagents against one gene are numbered here. No sequences are given here. Not given: the amount of reagent.

| Target gene | siRNA no. | G2 robust z-score | G2 cells, % of GMNN control | raw share of cells in G2 (%) | call |
| --- | --- | --- | --- | --- | --- |
| FRMD3 | 1 | -0.0442 | 2.66 | 4.54 | inactive |
| FRMD3 | 2 | -0.532 | -0.777 | 2.86 | inactive |
| FRMD3 | 3 | 4.12 | 31.9 | 13.4 | inactive |
| IFNGR1 | 1 | -0.636 | -1.51 | 3.65 | inactive |
| IFNGR1 | 2 | -1.6 | -8.31 | 2.52 | inactive |
| IFNGR1 | 3 | -0.826 | -2.85 | 4.01 | inactive |
| C4orf50 | 1 | 2 | 17 | 9.17 | inactive |
| C4orf50 | 2 | -0.523 | -0.713 | 2.7 | inactive |
| C4orf50 | 3 | 0.321 | 5.22 | 6.25 | inactive |
| PITPNM3 | 1 | -0.582 | -1.13 | 4.96 | inactive |
| PITPNM3 | 2 | 0.434 | 6.02 | 6.37 | inactive |
| PITPNM3 | 3 | -0.809 | -2.73 | 3.78 | inactive |
| DYDC1 | 1 | -0.707 | -2.01 | 2.37 | inactive |
| DYDC1 | 2 | 0.0462 | 3.29 | 4.93 | inactive |
| DYDC1 | 3 | -0.907 | -3.41 | 1.86 | inactive |
| OR13G1 | 1 | 1.23 | 11.6 | 8.1 | inactive |
| OR13G1 | 2 | 3.78 | 29.5 | 14.6 | inactive |
| OR13G1 | 3 | -0.42 | 0.00993 | 3.12 | inactive |
| TTLL6 | 1 | 0.157 | 4.07 | 5.77 | inactive |
| TTLL6 | 2 | -0.627 | -1.44 | 5.28 | inactive |
| TTLL6 | 3 | -0.455 | -0.232 | 4.87 | inactive |
| TUBB1 | 1 | -1.03 | -4.28 | 2.65 | inactive |
| TUBB1 | 2 | 3.27 | 26 | 14.4 | inactive |
| TUBB1 | 3 | 0.591 | 7.12 | 8.4 | inactive |
| LRRC45 | 1 | 1.2 | 11.4 | 6.37 | inactive |
| LRRC45 | 2 | -0.12 | 2.12 | 4.36 | inactive |
| LRRC45 | 3 | 0.303 | 5.1 | 4.67 | inactive |
| INPP4B | 1 | 1.16 | 11.1 | 8.68 | inactive |
| INPP4B | 2 | 1.22 | 11.6 | 9.8 | inactive |
| INPP4B | 3 | 0.0451 | 3.28 | 6.42 | inactive |
| PNPLA7 | 1 | -0.733 | -2.19 | 3.02 | inactive |
| PNPLA7 | 2 | -0.616 | -1.37 | 2.81 | inactive |
| PNPLA7 | 3 | -0.22 | 1.42 | 5.24 | inactive |
| PFKFB4 | 1 | -0.346 | 0.534 | 4.97 | inactive |
| PFKFB4 | 2 | -0.843 | -2.97 | 3.41 | inactive |
| PFKFB4 | 3 | 1.36 | 12.6 | 7.28 | inactive |
| COXFA4 | 1 | -0.591 | -1.19 | 2.8 | inactive |
| COXFA4 | 2 | 1.63 | 14.5 | 11.2 | inactive |
| COXFA4 | 3 | 1.74 | 15.2 | 11.2 | inactive |
| CSE1L | 1 | 3.32 | 26.3 | 14.3 | inactive |
| CSE1L | 2 | 4.11 | 31.9 | 16.6 | inactive |
| CSE1L | 3 | 8.01 | 59.4 | 24.5 | active |
| CD14 | 1 | 0.0334 | 3.2 | 6.16 | inactive |
| CD14 | 2 | -0.0861 | 2.36 | 4.91 | inactive |
| CD14 | 3 | -0.751 | -2.32 | 4.13 | inactive |
| OR5AS1 | 1 | 0.38 | 5.64 | 5.62 | inactive |
| OR5AS1 | 2 | -0.339 | 0.58 | 3.33 | inactive |
| OR5AS1 | 3 | 0.988 | 9.92 | 6.36 | inactive |
| KNDC1 | 1 | 0.157 | 4.07 | 5.81 | inactive |
| KNDC1 | 2 | 1.81 | 15.7 | 7.91 | inactive |
| KNDC1 | 3 | 2.1 | 17.7 | 8.55 | inactive |
| ELF5 | 1 | 0.651 | 7.54 | 7.98 | inactive |
| ELF5 | 2 | -0.875 | -3.19 | 4.05 | inactive |
| ELF5 | 3 | -0.723 | -2.12 | 2.9 | inactive |
| HSD17B13 | 1 | 0.111 | 3.75 | 7.52 | inactive |
| HSD17B13 | 2 | 0.112 | 3.76 | 6.43 | inactive |
| HSD17B13 | 3 | -0.471 | -0.344 | 4.16 | inactive |
| RAD9A | 1 | 4.77 | 36.5 | 16.3 | inactive |
| RAD9A | 2 | 1.52 | 13.7 | 9.68 | inactive |
| RAD9A | 3 | -1.39 | -6.82 | 2.08 | inactive |
| TRIB3 | 1 | -1.14 | -5.07 | 2.06 | inactive |
| TRIB3 | 2 | -0.935 | -3.61 | 4.47 | inactive |
| TRIB3 | 3 | 2.92 | 23.5 | 13.8 | inactive |
| LOC440982 | 1 | 1.34 | 12.4 | 8.41 | inactive |
| LOC440982 | 2 | 1.3 | 12.1 | 8 | inactive |
| LOC440982 | 3 | -0.307 | 0.81 | 3.39 | inactive |
| H2BC9 | 1 | 1.62 | 14.4 | 11.5 | inactive |
| H2BC9 | 2 | -1.11 | -4.84 | 1.98 | inactive |
| H2BC9 | 3 | 0.09 | 3.6 | 4.62 | inactive |
| DNAJC9 | 1 | -0.0111 | 2.89 | 4.49 | inactive |
| DNAJC9 | 2 | -1.02 | -4.19 | 4.12 | inactive |
| DNAJC9 | 3 | 1.13 | 10.9 | 7.91 | inactive |
| RAE1 | 1 | -0.8 | -2.66 | 3.75 | inactive |
| RAE1 | 2 | 0.622 | 7.34 | 7.84 | inactive |
| RAE1 | 3 | 1.17 | 11.2 | 9.62 | inactive |
| PCDHB8 | 1 | 1.86 | 16.1 | 13.5 | inactive |
| PCDHB8 | 2 | -0.873 | -3.17 | 3.3 | inactive |
| PCDHB8 | 3 | -1.13 | -4.97 | 2.26 | inactive |
| FBXL18 | 1 | 0.0706 | 3.46 | 5.88 | inactive |
| FBXL18 | 2 | 2.05 | 17.4 | 11.9 | inactive |
| FBXL18 | 3 | 0.349 | 5.42 | 3.86 | inactive |
| ZNF503 | 1 | 0.636 | 7.44 | 7.24 | inactive |
| ZNF503 | 2 | -0.623 | -1.42 | 2.56 | inactive |
| ZNF503 | 3 | 0.0814 | 3.54 | 4.05 | inactive |
| PHEX | 1 | 0.555 | 6.87 | 6.37 | inactive |
| PHEX | 2 | -0.582 | -1.13 | 3.16 | inactive |
| PHEX | 3 | 2.75 | 22.3 | 12 | inactive |
